Measurements: PubChem BioAssay AID540256 (National Center for Advancing Translational Sciences (NCATS), 2011)
The whole screen tested about 300,000 compounds, of which about 3,700 (1.2%) were called active. This list was built around the results that the source calls inconclusive (neither active nor inactive); the mix of calls is not that of the screen. Calls follow the shape of the full dose curve; tested in HEK293 cells. A potency beside an inconclusive call is a rough fit, not a confirmed value.

Assay: qHTS for Inhibitors of binding or entry into cells for Lassa Virus; also: nearly all actives have a fitted effect of over 50% in size
Conditions: Lassa virus pseudotype entry inhibition, cell reporter; series mostly up to 37.9 µM
Potency is read from the fitted curve at half-maximal effect.

Structure (SMILES)	Potency
CC1Oc2ccccc2OC1(O)c1ccc2ccccc2n1 (stereo not drawn)	inconclusive: 22.4 µM [inhibitor, single point]
CCCCN(CC)CCNC(=S)Nc1ccc2nc(N3CCN(C)CC3)cc(C)c2c1	inconclusive: 6.31 µM [inhibitor, full curve, poor fit]
S=c1[nH]nc(-c2ccco2)n1/N=C/C(Cl)=C/c1ccccc1	inconclusive: 1 µM [inhibitor, full curve, poor fit]
Brc1ccc(-c2csc3ncnc(-n4nnc5ccccc54)c23)cc1	inconclusive: 20.6 µM [inhibitor, single point]
O=C1c2[nH]nc(-c3ccccc3O)c2C(c2cccc(OCc3ccccc3)c2)N1CCCO (stereo not drawn)	inconclusive: 1.26 µM [inhibitor, full curve, poor fit]
COc1ccc(-c2cc(C(=O)N/N=C/c3cccnc3)c3cc(C)cc(C)c3n2)cc1	inconclusive: 1.12 µM [inhibitor, single point]
O=C(CC(C(=O)O)c1ccc(Cl)cc1)c1ccc(Br)cc1 (stereo not drawn)	inactive
COc1ccccc1N(CC(=O)N/N=C(\C)c1ccc(F)cc1)S(=O)(=O)c1ccccc1	inactive
N#Cc1nc(-c2ccc(COc3ccc(Cl)cc3)o2)oc1N1CCCCC1	inactive
O=C(Nc1cc2c(cc1Br)OCCO2)c1cccs1	inconclusive: 6.31 µM [activator, single point]
CSc1ccc(CN2CCN(C(=O)c3ccc([N+](=O)[O-])cc3)CC2)cc1	inconclusive: 7.08 µM [inhibitor, full curve, poor fit]
COC(CN1CCc2c(C)nc3c(C#N)cnn3c21)OC	inactive
CC(C)NC(=O)CN1CCC(O)(c2ccccc2)CC1	inactive
COc1cc(-c2nnc(SCc3ccccc3Cl)o2)cc(OC)c1OC	inconclusive: 5.62 µM [inhibitor, full curve, poor fit]
CCOC(=O)c1cc(-c2ccccc2)n(CCCC(=O)Nc2ccc(C)c(Cl)c2)c1C	inactive
CN1C(=O)C2(c3ccccc31)N(C)CC(c1ccccc1)C21SC(=S)N(Cc2ccco2)C1=O (stereo not drawn)	inconclusive: 8.2 µM [inhibitor, partial curve, poor fit]
O=C(Nc1cc(Sc2ccccn2)cc([N+](=O)[O-])c1)c1cccc(F)c1	inconclusive: 35.5 µM [inhibitor, single point]
Cn1nnnc1NCc1cccc(Cl)c1Cl	inconclusive: 8.91 µM [inhibitor, partial curve, poor fit]
COCC(C)n1c(C)cc(C(=O)COC(=O)c2nc3nc(C)cc(C)n3n2)c1C (stereo not drawn)	inactive
CCc1cc(C(c2ccc(F)cc2)N2CCOCC2)c(NC(=O)c2ccccc2)s1 (stereo not drawn)	inconclusive: 12.6 µM [activator, partial curve, poor fit]
CCc1cccc(NC(=O)c2cnc(N3CCOCC3)c3ccccc23)c1	inconclusive: 10 µM [activator, partial curve, poor fit]
Cc1c(C(=O)N2CCCC2)oc2c1-c1nn(CC(=O)NCc3ccc(OC(C)C)cc3)cc1CC2	inconclusive: 10 µM [inhibitor, partial curve, poor fit]
CC(C)CCn1nnnc1CN1CCN(c2ccccc2)CC1	inconclusive: 22.4 µM [inhibitor, single point]

Taken from the results shown, 4 compounds:
Structure (SMILES)	Potency
CCOC(=O)c1cc(-c2ccccc2)n(CCCC(=O)Nc2ccc(C)c(Cl)c2)c1C	inactive
CN1C(=O)C2(c3ccccc31)N(C)CC(c1ccccc1)C21SC(=S)N(Cc2ccco2)C1=O (stereo not drawn)	inconclusive: 8.2 µM [inhibitor, partial curve, poor fit]
O=C(Nc1cc(Sc2ccccn2)cc([N+](=O)[O-])c1)c1cccc(F)c1	inconclusive: 35.5 µM [inhibitor, single point]
Cn1nnnc1NCc1cccc(Cl)c1Cl	inconclusive: 8.91 µM [inhibitor, partial curve, poor fit]

(continued)

Structure (SMILES)	Potency
CC(C)OCCCNC(=O)c1cn(C)c2ccc(S(=O)(=O)N(C)C3CCCCC3)cc2c1=O	inconclusive: 20 µM [activator, partial curve, poor fit]
C=CCNCCCOc1ccc(C)cc1Br	inconclusive: 7.31 µM [activator, partial curve]
COc1ccc(N2CC(C(=O)NCCS(=O)(=O)N3CCN(c4ccccc4)CC3)CC2=O)cc1 (stereo not drawn)	inconclusive: 5.62 µM [inhibitor, single point]
O=C(Nc1ccnn1C1CCN(C/C=C/c2ccccc2)CC1)c1ccccc1	inconclusive: 35.5 µM [inhibitor, partial curve, poor fit]
CCOC(=O)N1CCN(C(=O)C(C)SCc2ccccc2)CC1 (stereo not drawn)	inconclusive: 5.17 µM [inhibitor, partial curve]
Cc1cc(NC(=O)Nc2ccc3c(ccn3C)c2)sn1	inconclusive: 2.31 µM [activator, full curve]
O=C(COC(=O)CNS(=O)(=O)c1ccc(Br)cc1Cl)NCCc1ccccc1	inconclusive: 0.708 µM [activator, full curve, poor fit]
O=C(O)c1ccc(O)c(N2C(=O)Nc3ccccc3N2O)c1	inconclusive: 0.0517 µM [inhibitor, full curve, poor fit]
CC(C)N(Cc1cn(C)nc1-c1cccc(Cl)c1)Cc1nccn1C	inconclusive: 35.5 µM [inhibitor, single point]
c1ccc2[nH]c(SCc3cscn3)nc2c1	inconclusive: 29.1 µM [activator, single point]
O=C(C1CCN(S(=O)(=O)c2cnc[nH]2)CC1)N1CCN(c2ncccn2)CC1	inconclusive: 11.2 µM [activator, partial curve, poor fit]
COc1ccc(OC)c(CNC(=O)C2CCCN(C(=O)N(C)C)C2)c1 (stereo not drawn)	inconclusive: 0.82 µM [inhibitor, partial curve, poor fit]
Cc1noc(C)c1S(=O)(=O)N1CCCC(C(=O)NCCc2ccccc2)C1 (stereo not drawn)	inconclusive: 14.1 µM [activator, single point]
CCCC(C)NC(=O)c1ccc(C2SCC(=O)N2Cc2ccco2)cc1 (stereo not drawn)	inconclusive: 12.6 µM [inhibitor, single point]
Cc1cccc(NC(=O)CCn2cnnn2)c1	inactive
COC(=O)C1=C(C)NC(=O)NC1c1ccc2ccccc2c1 (stereo not drawn)	inconclusive: 1.41 µM [inhibitor, partial curve, poor fit]
O=C(c1ccc(NS(=O)(=O)c2ccccc2)cc1)N1CCN(Cc2ccc3c(c2)OCO3)CC1	inconclusive: 14.1 µM [inhibitor, partial curve, poor fit]
O=C(CCNc1ccc(F)cc1)c1cccc([N+](=O)[O-])c1	inactive
O=C1CCCN1c1ccc(Br)cc1	inactive
O=C(c1ccco1)N1N=C(c2ccccc2)CC1c1ccc2nccnc2c1 (stereo not drawn)	inactive
CCN(CC)S(=O)(=O)c1ccc2c(c1)N(CC(=O)N1CCN(c3cccc(C)c3)C(C)C1)C(=O)CO2 (stereo not drawn)	inactive
O=C(NNC1=NCCC1)c1cccc(Br)c1	inconclusive: 11.6 µM [activator, partial curve, poor fit]
CCc1ccc(NC(=O)Cn2c(=O)c3cccn3c3ccccc32)cc1	inactive

Structure (SMILES)	Potency
CCc1cccc(C)c1NC(=O)CN1CCN(Cc2ccccc2Cl)S1(=O)=O	inactive
CC(C)(C)SCCNC(=O)c1ccc(Cl)c(S(=O)(=O)N2CCOCC2)c1	inactive
Cc1cc(=O)[nH]c2nnc(SCC(N)=O)n12	inconclusive: 2.51 µM [activator, full curve]
CCCN(Cc1ccccc1)S(=O)(=O)c1ccc(N2C(=O)CCC2=O)cc1	inactive
CC(=O)N1c2ccc(S(=O)(=O)NCC3CCC(C(=O)Nc4cccc(C)n4)CC3)cc2CC1C (stereo not drawn)	inconclusive: 12.6 µM [inhibitor, partial curve, poor fit]
Nc1ncnc(N2CCOCC2)c1N	inactive
CCOC(=O)N1CCN(C(=O)c2ccc(Cl)c(S(=O)(=O)N3CCCC3)c2)CC1	inactive
O=C(COc1ccc2oc3c(c2c1)CCCC3)Nc1cccc(Br)c1	inactive
Cc1ccc2[nH]c(=O)c(CN(CC3CCCO3)C(=S)Nc3ccccc3)cc2c1 (stereo not drawn)	inconclusive: 35.5 µM [inhibitor, single point]
O=C(COc1ccccc1)NCC(c1ccco1)N1CCN(c2ccccc2F)CC1 (stereo not drawn)	inconclusive: 10 µM [inhibitor, partial curve, poor fit]
CC(C)C1NCCc2c1sc1ccccc21 (stereo not drawn)	inconclusive: 28.2 µM [activator, single point]
O=C(Nc1ccncc1)c1cccc(S(=O)(=O)N2CCCC2)c1	inconclusive: 22.4 µM [inhibitor, partial curve, poor fit]
CS(=O)(=O)c1ccc(C(=O)OCC(=O)N2CCCc3ccccc32)cc1	inactive
CC(CSc1nc2ccccc2s1)Cn1c(N2CCCC2)nc2c1c(=O)[nH]c(=O)n2C (stereo not drawn)	inactive
COc1ccc(C(=S)N2CCCC2)cc1OC	inconclusive: 22.4 µM [activator, partial curve, poor fit]
Oc1ccc2ccccc2c1/C=N/c1nccs1	inactive
C=CCN(CC=C)S(=O)(=O)c1ccc(NC(=S)NC(=O)Cc2ccc(OC)cc2)cc1	inconclusive: 29.1 µM [inhibitor, single point]
O=C(Nc1cccc([N+](=O)[O-])c1)Nc1cccc([N+](=O)[O-])c1	inconclusive: 25.1 µM [inhibitor, single point]
COc1ccc(NS(=O)(=O)c2cnc(N)nc2)cc1Cl	inconclusive: 12.6 µM [inhibitor, partial curve, poor fit]
CN(C)c1ccc(/C=C/C(=O)c2ccc3c(c2)OCCO3)cc1[N+](=O)[O-]	inactive
Cc1ccc2c(c1)c(N=O)c(O)n2Cc1ccc(Cl)cc1	inconclusive: 14.1 µM [inhibitor, partial curve, poor fit]
COc1cc(C(=O)Nc2nc(OC)c(-c3ccccc3)c(OC)n2)cc(OC)c1OC	inconclusive: 6.51 µM [inhibitor, full curve, poor fit]
